Results from one PubChem assay

Source: PubChem BioAssay AID1053133 (Broad Institute, 2014).

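Vaccinia-infected cells with a two-color viral stage reporter; Venus fluorescence read on a plate reader; the cell line is not named here; timing not stated here. The test concentration is not given here. Percent change in Venus reporter signal; lower (more negative) values mean stronger inhibition of that viral stage.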

Values are in %. The controls that fix the scale are not given here. Common to all entries: measured here: Venus reporter, other viral stage. Part of the compounds only, not a random draw; the main read-out is not listed here.

CC(C)NC(=O)Nc1ccc2c(c1)CC(=O)N([C@@H](C)CO)C[C@@H](C)[C@@H](CN(C)Cc1ccc(Oc3ccccc3)cc1)O2 gave activity change (Venus) -42.02%.
COc1ccccc1C#Cc1ccc2c(c1)O[C@H](CN(C)C)[C@@H](C)CN([C@H](C)CO)S2(=O)=O gave activity change (Venus) -35.7%.
Cc1ccccc1S(=O)(=O)N1[C@@H](C#N)[C@@H](c2ccc(C#CC3CCCCC3)cc2)[C@@H]1CO gave activity change (Venus) -45.27%.
C[C@H](CO)N1C[C@H](C)[C@H](CN(C)Cc2ccc(C(F)(F)F)cc2)OCCCC[C@H](C)Oc2ccc(NC(=O)CCC(F)(F)F)cc2C1=O gave activity change (Venus) -54.47%.
CCCC#Cc1ccc([C@H]2[C@@H](CO)N3C(=O)CN(S(=O)(=O)c4ccccc4C)C[C@H]23)cc1 gave activity change (Venus) -26.35%.
C[C@H]1CCCCO[C@H](CN(C)Cc2ccc(Cl)c(Cl)c2)[C@@H](C)CN([C@@H](C)CO)C(=O)c2cc(NC(=O)Cc3ccccc3)ccc2O1 gave activity change (Venus) -65.33%.
C[C@H](CO)N1C[C@H](C)[C@@H](CN(C)Cc2ccc3c(c2)OCO3)OCCCC[C@H](C)Oc2ccc(NC(=O)Nc3ccccc3)cc2C1=O gave activity change (Venus) -32.9%.
CO[C@H](CN(C)S(=O)(=O)c1ccc(C)cc1)[C@@H](C)CN([C@@H](C)CO)S(=O)(=O)c1cccc(Cl)c1 gave activity change (Venus) -35.51%.
C[C@H](CO)N1C[C@H](C)[C@@H](CN(C)Cc2ccc(Cl)c(Cl)c2)Oc2ccc(NC(=O)C3CCCCC3)cc2CC1=O gave activity change (Venus) -45.2%.
Cc1ccc(S(=O)(=O)Nc2ccc3c(c2)CC(=O)N([C@@H](C)CO)C[C@@H](C)[C@H](CN(C)Cc2ccc(Oc4ccccc4)cc2)O3)cc1 gave activity change (Venus) -37.81%.
C=CCN1C(=O)[C@]2(O[C@H](CCO)[C@@H]([Si](C)(C)c3ccc(OC)cc3)[C@@H]2C)c2ccccc21 gave activity change (Venus) -81.76%.
O=C(C1CCC1)N1CC[C@@H]2[C@@H](CO)Nc3ccc(C#Cc4ccc(F)cc4)cc3[C@@H]21 gave activity change (Venus) -19.55%.
COc1ccc2c3c(n(C)c2c1)[C@@H](CO)N(C(=O)C1CCCC1)CC31CCN(C(=O)Nc2cccc(F)c2)CC1 gave activity change (Venus) -26.81%.
C[C@@H]1CN([C@@H](C)CO)C(=O)Cc2cc(NC(=O)Nc3ccc(C(F)(F)F)cc3)ccc2O[C@@H]1CN(C)S(=O)(=O)c1cccs1 gave activity change (Venus) -20.28%.
C[C@@H]1CN([C@H](C)CO)S(=O)(=O)c2ccc(C3=CCCCC3)cc2O[C@H]1CN(C)C(=O)Cc1ccccc1 gave activity change (Venus) -53.78%.
Cc1noc(C)c1S(=O)(=O)Nc1ccc2c(c1)CC(=O)N([C@@H](C)CO)C[C@@H](C)[C@H](CN(C)Cc1ccc(C(F)(F)F)cc1)O2 gave activity change (Venus) -73.47%.
CN1c2ccc(-c3ccccc3)cc2[C@@H]2[C@@H](CCN2C(=O)c2ccccc2)[C@@H]1CO gave activity change (Venus) -33.31%.
CCC(=O)N(C)C[C@H]1Oc2cc(C#Cc3ccncc3)ccc2S(=O)(=O)N([C@H](C)CO)C[C@@H]1C gave activity change (Venus) -15.82%.
C[C@@H]1CN([C@H](C)CO)C(=O)c2c(c3ccccc3n2C)-c2ccccc2CO[C@@H]1CN(C)Cc1ccc2c(c1)OCO2 gave activity change (Venus) -60.55%.
COc1ccc(CN(C)C[C@@H]2OCCCC[C@H](C)Oc3ccc(NC(=O)NC4CCCCC4)cc3C(=O)N([C@H](C)CO)C[C@H]2C)cc1 gave activity change (Venus) -53.53%.
CO[C@H]1CN(C)C(=O)c2cc(NC(=O)Nc3cccc(Cl)c3)ccc2OC[C@H](C)NC[C@@H]1C gave activity change (Venus) -27.08%.
C[C@H]1CN([C@@H](C)CO)C(=O)c2cccc(NC(=O)CCCCCC(=O)Nc3ccccc3N)c2O[C@@H]1CN(C)Cc1ccc(Oc2ccccc2)cc1 gave activity change (Venus) -26.39%.

Some entries from above, unchanged:

C=CCN1C(=O)[C@]2(O[C@H](CCO)[C@@H]([Si](C)(C)c3ccc(OC)cc3)[C@@H]2C)c2ccccc21 read activity change (Venus) -81.76%.
C[C@H]1CN([C@@H](C)CO)C(=O)c2cccc(NC(=O)CCCCCC(=O)Nc3ccccc3N)c2O[C@@H]1CN(C)Cc1ccc(Oc2ccccc2)cc1 read activity change (Venus) -26.39%.